# PubChem BioAssay AID743121 | NCATS – 2013
# Assay: 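Partners whose loss is lethal together with topoisomerase I blockade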 (primary screen)
# System: MDA-MB-231 cells, a human breast cancer line
# Reagent: single siRNA against human genes, 20 nM siRNA (0.8 pmol per well)
# Time to read-out: 120 h (drug added 48 h after transfection, read 72 h later)
# Conditions: camptothecin 20 nM (about EC30) for 72 h; vehicle 0.1% DMSO in parallel plates
# Measured: 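CellTiter-Glo ATP signal, scaled to control siRNA as percent viability; sensitisation given as log2 of untreated divided by camptothecin-treated viability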
# Direction: log2 vehicle/camptothecin viability: higher = stronger sensitisation to camptothecin; viability with camptothecin: higher = more viable cells
# Active means: 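Active genes have an RSA gene-level p-value below 0.001, computed from the ratios of their separate siRNAs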
# The deposit covers about 26,000 reagents; this is a random part of them. Of all reagents, 167 (0.63%) got an active call. 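Calls are per gene from RSA p-values that are not deposited; an individual active-marked siRNA can sensitise only weakly.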 Entries without a mark were called inactive. The numbers tell different reagents against one gene apart. Not all columns of the deposit are shown. No sequences are given here.
target,siRNA no.,log2 vehicle/camptothecin viability,viability with camptothecin (% of control)
TRPV3 (GeneID 162514),1,-0.287,86
TRPV3 (GeneID 162514),2,0.247,95.2
TRPV3 (GeneID 162514),3,0.0193,28.7
NONO (GeneID 4841),1,0.175,71.3
NONO (GeneID 4841),2,0.468,33.3
NONO (GeneID 4841),3,-0.422,99
FRS2 (GeneID 10818),1,0.147,100
FRS2 (GeneID 10818),2,-0.109,92.1
FRS2 (GeneID 10818),3,-0.119,103
FRS2 (GeneID 10818),4,1.12,23.4
GMPR2 (GeneID 51292),1,0.0132,44.6
GMPR2 (GeneID 51292),2,0.0796,40.5
GMPR2 (GeneID 51292),3,-0.358,89.2
GMPR2 (GeneID 51292),4,-0.0973,39.2
TWNK (GeneID 56652),1,-0.00752,99
TWNK (GeneID 56652),2,-0.425,36.8
TWNK (GeneID 56652),3,-0.305,77.1
TWNK (GeneID 56652),4,-0.392,65.9

The list goes on; the last 2 above are carried over.
target,siRNA no.,log2 vehicle/camptothecin viability,viability with camptothecin (% of control)
TWNK (GeneID 56652),3,-0.305,77.1
TWNK (GeneID 56652),4,-0.392,65.9
EXO1 (GeneID 9156),1,-0.0369,86.4
EXO1 (GeneID 9156),2,-0.558,55.8
EXO1 (GeneID 9156),3,-0.399,99.1
TPM1 (GeneID 7168),1,0.769,9.89
TPM1 (GeneID 7168),2,0.291,50.8
TPM1 (GeneID 7168),3,-0.426,46.6
CDKL3 (GeneID 51265),1,0.0623,95.1
CDKL3 (GeneID 51265),2,-0.698,113
CDKL3 (GeneID 51265),3,-0.248,126
CDKL3 (GeneID 51265),4,-0.529,43.1
